Reference: patent US20050118646A1
These are yes or no findings as the source states them, for the method shown. Some results given as binding are weak or reduced against the parent protein; the word gives no strength. Sequences can lack the tags named with a protein.

The chains behind the UniProt entries cited, without tags or fusion partners. Residues count along the entry.
UniProt P02701, residues 25-152: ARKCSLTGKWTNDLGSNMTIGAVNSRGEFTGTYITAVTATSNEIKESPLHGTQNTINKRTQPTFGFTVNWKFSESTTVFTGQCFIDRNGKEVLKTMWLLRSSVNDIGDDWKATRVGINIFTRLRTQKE

Target: Neutravidin (UltraLink neutravidin beads, Pierce; neutravidin protein) (UniProt P02701)
Assay: Western blot of samples before and after biotinylation and of the supernatant after binding to UltraLink neutravidin beads

Row | Binder | binding
1 | E24-Tag-only (AviTag-TEV cleavage site-His6-PrC, no bait), biotinylated (biotin attached to the AviTag (BirA recognition sequence) by BirA in vitro) MSGLNDIFEAQKIEWHEGAISAENLYFQGSSAHHHHHHGSEDQVDPRLIDGK | binds
2 | E25-Tag-only (AviTag-(G4S)2-TEV cleavage site-His6-PrC, no bait), biotinylated (biotin attached to the AviTag (BirA recognition sequence) by BirA in vitro) MSGLNDIFEAQKIEWHEGAISGGGGSGGGGSGGGGSAENLYFQGSSAHHHHHHGSEDQVDPRLIDGK | binds
